# Experimental data reported in the supplement of paper PMC9135407.
# Several values for one entry are separate records, joined by “and”; a condition that tells them apart may be missing. Identical values can stand only once. Counter-ions that a name gives are not always drawn. ± gives the standard deviation of the averaged measurements. Some of the results follow. Plates or batches differ in their baseline, so values are only roughly comparable.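 Primary human stellate myofibroblasts activated in culture; inactivation shown by regained lipid droplets. Readout: fraction of Hoechst-counted cells exceeding a per-plate Bodipy threshold, duplicate wells, each plate with DMSO negative and nortriptyline positive controls. Hits: control-normalized score beyond the plate's top-tenth-percentile nortriptyline wells, or among its three best wells. Final well concentrations unstated.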
# Tested on: primary human hepatic stellate cells (donor 1)
# Test: percent Bodipy-positive cells; higher = more lipid droplet accumulation
# Conditions: 48 h
# [1] = library stock concentration: 3.33 mM
# [2] = library stock concentration: 10 mM
# [3] = library stock concentration: 5.3 mM
# [4] = library stock concentration: 1 mM
# [5] = library stock concentration: 80 uM
# [6] = library stock concentration: 400 uM
# [7] = library stock concentration: 2 mM
compound,measurement,setting,value
CCCNCC(O)COc1ccccc1C(=O)CCc1ccccc1 (stereo not given) [Propafenone HCl],percent Bodipy-positive cells,[1],44.8 ± 17%
same,percent Bodipy-positive cells,[2],66.5 ± 11%
CCCNCC(O)COc1ccccc1C(=O)CCc1ccccc1 (stereo not given) [Propafenone hydrochloride],percent Bodipy-positive cells,,72.2 ± 8.2%
same,percent Bodipy-positive cells,[3],52.1 ± 6.6%
same,percent Bodipy-positive cells,[2],73.8 ± 13%
CCCNCC(O)COc1ccccc1C(=O)CCc1ccccc1 (stereo not given) [Rythmol],percent Bodipy-positive cells,[2],85.1 ± 3.6%
CCCNCC(O)COc1ccccc1C(=O)CCc1ccccc1 (stereo not given) [Propafenone],percent Bodipy-positive cells,library stock concentration: 5.9 mM,42.1 ± 1.2%
CCCCCCCCCCCCCCCCCC(=O)OC(CC(=O)O)C[N+](C)(C)C (racemic) [DL-Stearoylcarnitine chloride],percent Bodipy-positive cells,[2],48 ± 13%
O=C1c2ccc(Nc3ccc(F)cc3F)cc2CCc2ccc(OC[C@H](O)CO)cc21 [Skepinone-L],percent Bodipy-positive cells,[1],43 ± 9.4%
same,percent Bodipy-positive cells,[2],66.2 ± 12%
C[C@H]1C[C@@H]2[C@H]([C@@H](O)C[C@@]3(C)[C@H]2CC[C@]3(O)C(=O)CO)[C@@]2(C)C=CC(=O)C=C12 [Methylprednisolone],percent Bodipy-positive cells,[1],6.55 ± 1.2%
same,percent Bodipy-positive cells,[3],4.82% and 2.96%
same,percent Bodipy-positive cells,[2],17.9% and 4.74%
C[C@H]1C[C@@H]2[C@H]([C@@H](O)C[C@@]3(C)[C@H]2CC[C@]3(O)C(=O)CO)[C@@]2(C)C=CC(=O)C=C12,percent Bodipy-positive cells,[2],33.2 ± 12%
"C[C@H]1C[C@@H]2[C@H]([C@@H](O)C[C@@]3(C)[C@H]2CC[C@]3(O)C(=O)CO)[C@@]2(C)C=CC(=O)C=C12 [Methylprednisolone, 6-alpha]",percent Bodipy-positive cells,,26.09 ± 0.12%
O=C1CC2(CCCC2)CC(=O)N1CCCCN1CCN(c2ncccn2)CC1 [Buspirone HCl],percent Bodipy-positive cells,[1],24 ± 1.9%
same,percent Bodipy-positive cells,library stock concentration: 5.2 mM,16.3 ± 0.91%
same,percent Bodipy-positive cells,[2],14.2 ± 1.1%
O=C1CC2(CCCC2)CC(=O)N1CCCCN1CCN(c2ncccn2)CC1 [Buspirone hydrochloride],percent Bodipy-positive cells,library stock concentration: 4.7 mM,9.93 ± 1%
O=C1CC2(CCCC2)CC(=O)N1CCCCN1CCN(c2ncccn2)CC1 [Buspar],percent Bodipy-positive cells,[2],47.5 ± 2.6%
CC[C@H]1OC(=O)[C@H](C)[C@@H](O[C@H]2C[C@@](C)(OC)[C@@H](O)[C@H](C)O2)[C@H](C)[C@@H](O[C@@H]2O[C@H](C)C[C@H](N(C)C)[C@H]2O)[C@](C)(O)C[C@@H](C)[C@@H]2N[C@@H](COCCOC)O[C@H]([C@H]2C)[C@]1(C)O [Dirithromycin],percent Bodipy-positive cells,,23.99 ± 0.044%
same,percent Bodipy-positive cells,[1],21.3 ± 0.95%
same,percent Bodipy-positive cells,[2],45.4% and 52.8%
Cc1cc(C)c(/C=C2\C(=O)Nc3ccccc32)[nH]1 [Semaxanib (SU5416)],percent Bodipy-positive cells,[1],6.75 ± 4.5%
same,percent Bodipy-positive cells,[2],28.9 ± 2.2%
Cc1cc(C)c(/C=C2\C(=O)Nc3ccccc32)[nH]1 [VEGF Receptor 2 Kinase Inhibitor III],percent Bodipy-positive cells,[1],13.1 ± 1.8%
Cc1cc(C)c(/C=C2\C(=O)Nc3ccccc32)[nH]1,percent Bodipy-positive cells,[4],8.29 ± 0.88%
same,percent Bodipy-positive cells,[2],16.7% and 4.21%
O=C(NOC[C@H](O)CO)c1ccc(F)c(F)c1Nc1ccc(I)cc1F,percent Bodipy-positive cells,[5],11.5 ± 2.9%
same,percent Bodipy-positive cells,[6],10.5% and 17.7%
same,percent Bodipy-positive cells,[7],10.7% and 33%
same,percent Bodipy-positive cells,[1],7.29 ± 0.67%
CC(C)c1cc(-c2ccc(F)c3ccccc23)nc(N)n1,percent Bodipy-positive cells,[1],15.8 ± 6.3%
same,percent Bodipy-positive cells,[2],18 ± 3.3%
C[C@H](C(=O)O)c1ccc(-c2ccccc2)c(F)c1 [(S)-Flurbiprofen],percent Bodipy-positive cells,[4],16.5 ± 5.8%
O=C1C[C@@H]2[C@@H](/C=C/[C@@H](O)COc3cccc(C(F)(F)F)c3)[C@H](O)C[C@@H]2O1 [Fluprostenol Lactone Diol],percent Bodipy-positive cells,[4],7.07 ± 1.4%
COc1ccc(S(=O)(=O)N(C(C)=O)c2ccccc2/C=C/c2cc[n+]([O-])cc2)cc1,percent Bodipy-positive cells,[5],20.3 ± 20%
same,percent Bodipy-positive cells,[6],10.2 ± 2.8%
same,percent Bodipy-positive cells,[7],13.9 ± 6.1%
same,percent Bodipy-positive cells,[1],20.1 ± 1.9%
same,percent Bodipy-positive cells,[2],53.7% and 37.4%
Cc1c(F)cc(C(=O)NC2CC2)cc1-c1ccc(C(=O)NCC(C)(C)C)cn1,percent Bodipy-positive cells,[1],37.2 ± 8.9%
same,percent Bodipy-positive cells,[2],43.8 ± 2.1%
Cc1c(F)cc(C(=O)NC2CC2)cc1-c1ccc(C(=O)NCC(C)(C)C)cn1 [Losmapimod],percent Bodipy-positive cells,[5],13.7 ± 3.3%
same,percent Bodipy-positive cells,[6],9.12 ± 0.61%
same,percent Bodipy-positive cells,[7],6.35 ± 2.2%
same,percent Bodipy-positive cells,[2],7.83 ± 3.8%
O=C(NCc1ccc(Cl)c(Cl)c1)O[C@H]1CCc2ccccc21,percent Bodipy-positive cells,[4],16.1 ± 3%
CC(=O)c1ccc(N2CCOCC2)cc1O [DNA-PK Inhibitor III],percent Bodipy-positive cells,[1],9.31 ± 1%
CCCCCCCCCCCCCCCC(=O)OC[C@@H](O)COP(=O)(O)O [1-Palmitoyl Lysophosphatidic Acid (sodium salt)],percent Bodipy-positive cells,[4],10.1 ± 1.1%
"CCCC/C=C/C=C/C=C\CCCCCCCC(=O)O [9(Z),11(E),13(E)-Octadecatrienoic Acid]",percent Bodipy-positive cells,[4],7.55 ± 4.6%
Nc1nc(NCCc2ccc(O)cc2)nc2nc(-c3ccco3)nn12,percent Bodipy-positive cells,[2],8.26 ± 2.2%
CCCCC[C@H](O)/C=C/[C@H]1CC[C@H](O)[C@@H]1C/C=C\CCCC(=O)O [11-deoxy Prostaglandin F2.alpha.],percent Bodipy-positive cells,[4],18.1 ± 2.9%
C[C@@H]1C[C@H]2[C@@H]3C[C@H](F)C4=CC(=O)C(Cl)=C[C@]4(C)[C@@]3(F)[C@@H](O)C[C@]2(C)[C@@]1(O)C(=O)CO,percent Bodipy-positive cells,[2],6.15 ± 3.1%
C=CCN1CCc2c(cc(O)c(O)c2Br)[C@@H](c2ccccc2)C1 [R(+)-6-Bromo-APB hydrobromide],percent Bodipy-positive cells,[2],60.5 ± 3%
